Results are given in words; binding and its absence hold for the method and conditions named. In cells and extracts the contact can be indirect. A result given as binding can be weak or reduced; the word gives no strength.
Molecular target: full-length factor VIII missense mutant p.A488T (human) (UniProt P00451)
Assay: co-IP; lysates of transfected HEK293T cells (NP-40 lysis buffer: 50 mM Tris-Cl pH 7.5, 150 mM NaCl, 1% NP-40, 0.05% SDS); FVIII precipitated with agarose-bead-conjugated monoclonal anti-human FVIII, blots for BiP and CALR; cells untreated or treated with 2.5 µM SAHA or BIX (20 µM, 5 µM) for 24 h

Amino acid sequences for entries named in this document (tags omitted). A change or cut given only in a name is not applied to a line headed by its entry. Residues count along the entry.
UniProt P00451: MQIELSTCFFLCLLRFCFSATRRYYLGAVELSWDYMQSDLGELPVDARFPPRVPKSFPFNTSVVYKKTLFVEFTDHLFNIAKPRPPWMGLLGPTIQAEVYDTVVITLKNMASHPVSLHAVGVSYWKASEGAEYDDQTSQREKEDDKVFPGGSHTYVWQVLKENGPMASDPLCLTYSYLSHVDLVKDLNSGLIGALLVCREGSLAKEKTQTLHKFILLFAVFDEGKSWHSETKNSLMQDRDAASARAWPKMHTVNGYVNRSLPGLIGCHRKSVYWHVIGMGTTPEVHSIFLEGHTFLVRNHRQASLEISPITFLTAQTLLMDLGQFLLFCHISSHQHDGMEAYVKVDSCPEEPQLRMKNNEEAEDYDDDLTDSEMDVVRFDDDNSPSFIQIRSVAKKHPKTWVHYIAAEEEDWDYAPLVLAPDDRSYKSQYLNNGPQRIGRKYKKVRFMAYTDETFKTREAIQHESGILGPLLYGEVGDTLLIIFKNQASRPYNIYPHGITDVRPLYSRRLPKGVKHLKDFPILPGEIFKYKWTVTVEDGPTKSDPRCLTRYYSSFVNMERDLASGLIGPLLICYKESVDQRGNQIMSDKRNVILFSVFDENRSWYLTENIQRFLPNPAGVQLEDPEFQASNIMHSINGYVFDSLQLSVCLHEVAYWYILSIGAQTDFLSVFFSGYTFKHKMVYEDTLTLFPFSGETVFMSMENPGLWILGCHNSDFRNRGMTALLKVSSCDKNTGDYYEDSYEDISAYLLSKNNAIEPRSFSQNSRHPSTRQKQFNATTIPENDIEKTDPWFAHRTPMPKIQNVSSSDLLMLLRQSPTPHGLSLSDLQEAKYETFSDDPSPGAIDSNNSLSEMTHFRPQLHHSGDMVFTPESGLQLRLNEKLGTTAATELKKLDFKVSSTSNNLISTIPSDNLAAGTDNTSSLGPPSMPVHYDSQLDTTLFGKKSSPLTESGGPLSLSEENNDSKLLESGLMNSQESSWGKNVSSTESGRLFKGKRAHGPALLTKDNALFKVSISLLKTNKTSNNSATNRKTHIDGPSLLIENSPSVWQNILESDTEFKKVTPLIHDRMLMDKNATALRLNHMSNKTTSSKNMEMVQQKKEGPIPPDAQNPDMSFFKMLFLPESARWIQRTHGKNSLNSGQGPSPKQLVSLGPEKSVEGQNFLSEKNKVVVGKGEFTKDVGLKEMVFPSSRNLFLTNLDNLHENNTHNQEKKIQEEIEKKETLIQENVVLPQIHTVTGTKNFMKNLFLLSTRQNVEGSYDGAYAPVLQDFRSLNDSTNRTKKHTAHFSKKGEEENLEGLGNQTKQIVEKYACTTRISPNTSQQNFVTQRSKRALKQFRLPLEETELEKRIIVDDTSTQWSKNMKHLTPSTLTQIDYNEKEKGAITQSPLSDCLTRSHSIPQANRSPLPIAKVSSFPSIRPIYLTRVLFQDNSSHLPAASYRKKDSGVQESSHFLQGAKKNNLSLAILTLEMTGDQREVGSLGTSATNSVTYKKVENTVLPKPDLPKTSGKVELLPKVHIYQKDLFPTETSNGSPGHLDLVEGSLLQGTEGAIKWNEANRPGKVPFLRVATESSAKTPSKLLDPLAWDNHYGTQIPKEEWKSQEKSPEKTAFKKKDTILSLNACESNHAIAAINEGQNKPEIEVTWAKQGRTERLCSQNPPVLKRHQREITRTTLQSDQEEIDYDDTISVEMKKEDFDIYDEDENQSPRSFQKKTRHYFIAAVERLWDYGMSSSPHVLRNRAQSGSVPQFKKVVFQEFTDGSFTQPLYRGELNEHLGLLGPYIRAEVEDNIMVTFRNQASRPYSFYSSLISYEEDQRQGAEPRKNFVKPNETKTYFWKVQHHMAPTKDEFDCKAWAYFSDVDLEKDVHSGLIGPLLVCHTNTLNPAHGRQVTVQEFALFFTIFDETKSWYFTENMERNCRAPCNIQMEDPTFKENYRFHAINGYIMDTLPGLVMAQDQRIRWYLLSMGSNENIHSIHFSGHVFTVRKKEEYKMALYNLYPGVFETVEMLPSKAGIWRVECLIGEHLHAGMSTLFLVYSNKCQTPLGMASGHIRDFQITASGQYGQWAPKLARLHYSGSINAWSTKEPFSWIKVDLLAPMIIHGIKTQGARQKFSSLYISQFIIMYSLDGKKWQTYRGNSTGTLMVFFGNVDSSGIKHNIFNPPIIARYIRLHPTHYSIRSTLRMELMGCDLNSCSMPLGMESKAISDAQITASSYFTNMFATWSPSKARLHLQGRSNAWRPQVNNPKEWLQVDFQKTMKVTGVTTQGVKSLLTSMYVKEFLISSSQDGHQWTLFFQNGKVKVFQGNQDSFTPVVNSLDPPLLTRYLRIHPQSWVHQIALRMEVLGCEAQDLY
UniProt P11021, residues 19-654: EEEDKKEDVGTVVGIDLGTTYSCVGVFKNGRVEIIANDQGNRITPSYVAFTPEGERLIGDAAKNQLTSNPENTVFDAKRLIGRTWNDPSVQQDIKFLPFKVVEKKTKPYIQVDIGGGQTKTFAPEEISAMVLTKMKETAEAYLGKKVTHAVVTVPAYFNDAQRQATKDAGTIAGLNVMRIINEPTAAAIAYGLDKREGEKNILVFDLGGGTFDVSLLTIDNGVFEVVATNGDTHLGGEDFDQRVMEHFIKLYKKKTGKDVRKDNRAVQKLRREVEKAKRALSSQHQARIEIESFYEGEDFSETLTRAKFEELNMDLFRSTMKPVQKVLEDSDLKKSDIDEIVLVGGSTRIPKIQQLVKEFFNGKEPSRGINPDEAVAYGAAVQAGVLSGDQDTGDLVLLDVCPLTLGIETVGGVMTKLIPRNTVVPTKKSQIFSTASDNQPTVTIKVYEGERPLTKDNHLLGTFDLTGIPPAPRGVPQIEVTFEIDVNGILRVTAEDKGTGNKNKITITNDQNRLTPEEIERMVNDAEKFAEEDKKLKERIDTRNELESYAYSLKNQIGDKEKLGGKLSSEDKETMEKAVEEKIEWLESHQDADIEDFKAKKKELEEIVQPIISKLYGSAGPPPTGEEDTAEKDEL

binding	Substance
binds	calreticulin (from UniProt P27797 18-417)
binds	immunoglobulin binding protein (BiP/GRP78) (from UniProt P11021 19-654)

Reference: article PMC12024529
